Part of at least one peptide drawing is inferred or uncertain, most often the ends. Some compounds share one wording; it may come from a single statement. Some entries share one result that the patent states for a list of compounds. Peptide text beside a SMILES is read from it.
What was measured:
[1] = tested on: ARPE-19 cells; test: ARPE-19 cholesterol import (BODIPY-Cholesterol); assay type: cell-based, human; conditions: for cholesterol import activity (fluorescence values above baseline): ARPE-19, 10 μM peptide, 2 hours; for cholesterol import titration: ARPE-19, peptide:lipid complexes from 30 μM diluted 1:3, FIG. 16
Description: (§1) FIG. 12 and FIGS. 14A-14B illustrate the results of ARPE-19 cholesterol import testing. ARPE-19 cells were seeded on 96-well plates at 25,000 cells per well and grown to confluence. A 2× solution of 500 μM DMPC and 50 μM BODIPY-Cholesterol were prepared in serum free DMEM: F12. Peptides were diluted to 20 μM in serum free DMEM: F12 (a 2× solution). Peptides were added to lipid solution in equal parts (60 μL each) and were incubated for 1 hour at 37° C. ARPE-19 cells were serum starved in serum free DMEM: F12 for 1 hour at 37° C. Peptide: Lipid complexes (100 μL total volume per well) were transferred to ARPE-19 cells for 2 hours at 37° C. Cells were washed, fixed, and intracellular fluorescence was read on Promega GloMax at 475 nm excitation, 500-550 emission. Fluorescence values were background corrected from no treatment conditions. Data are presented as mean+SD for two runs.
FIG. 15 illustrates ARPE-19 cholesterol import titration curves for a subset of the peptides. ARPE-19 cells were seeded on 96-well plates at 25,000 cells per well and grown to confluence. A 2× solution of 500 μM DMPC and 50 μM BODIPY-Cholesterol was prepared in serum free DMEM: F12. Peptides were diluted to 0.74-60 μM in serum free DMEM: F12 (2× solutions). Peptides were added to lipid solution in equal parts (60 μL each) to create final peptide concentrations of 0.37-30 µM and incubated for 1 hour at 37° C. ARPE-19 cells were serum starved in serum free DMEM: F12 for 1 hour at 37° C. Peptide: Lipid complexes (100 μL total volume per well) were transferred to ARPE-19 cells for 2 hours at 37° C. Cells were washed, fixed, and intracellular fluorescence was read on Promega GloMax at 475 nm excitation, 500-550 emission. Fluorescence values were background corrected from no treatment conditions. Data are presented as mean+SD for three runs.
ARPE-19 cells were seeded on 96-well plates at 25,000 cells per well and grown to confluence. Peptide: Lipid complexes were created by preparing a solution of serum-free DMEM:F12 containing 30 μM peptide, 750 μM DMPC, and 75 μM BODIPY-Cholesterol. Peptide: Lipid complexes were serially diluted 1:3 for 5 concentrations, and incubated for 1 hour at 37° C. ARPE-19 cells were serum starved in serum free DMEM: F12 for 1 hour at 37° C. Peptide: Lipid complexes (100 μL total volume per well) were transferred to ARPE-19 cells for 2 hours at 37° C. Cells were washed, fixed, and intracellular fluorescence was read on Promega GloMax at 475 nm excitation, 500-550 emission. Fluorescence values were background corrected from no treatment conditions. Data are presented as mean±SD for two runs.

[2] = tested on: ARPE-19 cells; test: ARPE-19 GAG-dependent cholesterol import (with or without heparin); assay type: cell-based, human; conditions: ARPE-19, 10 μM peptide
Description: as §1, with “ARPE-19” for “FIG. 12 and FIGS. 14A-14B illustrate the results of ARPE-19 cholesterol import testing. ARPE-19”, “BODIPY-Cholesterol with or without 100 µg/mL heparin was” for “BODIPY-Cholesterol were”, “and” for “and were”, “presented ±SD” for “presented as mean+SD”, “for 2” for “for two”

[3] = tested on: HepG2 cells; test: HepG2 cholesterol import (BODIPY-Cholesterol); assay type: cell-based; conditions: for cholesterol import activity (cellular fluorescence values above baseline): HepG2, 10 μM peptide, 2 hours
[4] = tested on: HepG2 cells; test: HepG2 GAG dependent cholesterol import (with or without heparin); assay type: cell-based; conditions: HepG2, 10 μM peptide, with or without 100 μg/mL heparin
Description: HepG2 cells were seeded on 96-well plates at 10,000 cells per well and grown to confluence. A 2× solution of 500 μM DMPC and 50 μM BODIPY-Cholesterol with or without 100 μg/mL heparin was prepared in serum free EMEM. Peptides were diluted to 20 μM in serum-free EMEM (a 2× solution). Peptides were added to lipid solution in equal parts (60 μL each) and incubated for 1 hour at 37° C. HepG2 cells were serum starved in serum-free EMEM for 1 hour at 37° C. Peptide: Lipid complexes (100 μL total volume per well) were transferred to HepG2 cells for 2 hours at 37° C. Cells were washed, fixed, and intracellular fluorescence was read on Promega GloMax at 475 nm excitation, 500-550 emission. Fluorescence values were background corrected from no treatment conditions. Data are presented ±SD for 2 runs.

[5] = tested on: LDL; test: LDL oxidation assay (copper (II) sulfate, OD 234 nm); assay type: biochemical; conditions: 25 μM peptide, 100 μg/mL LDL, 15 μM copper (II) sulfate
[6] = tested on: HMC3 cells; test: HMC3 cholesterol efflux; assay type: cell-based, human; conditions: for cholesterol efflux titration: HMC3, 0-100 μM peptide, LXR agonist; for cholesterol efflux in the presence of LXR agonist: HMC3, 20 μM peptide, 4 hours
Description: (§2) FIGS. 27A-27B and FIG. 28 illustrate HMC3 cholesterol efflux. Fully confluent 96-well plates of HMC3 cells were treated for 1 hour in serum-free EMEM containing 10 mM methyl-β-cyclodextrin, 100 μM cholesterol, and 25 μM BODIPY cholesterol. Cells were then washed and incubated overnight in serum free EMEM containing 1 μM LXR agonist GW3965, 2 μg/mL ACAT inhibitor, and 0.2% BSA (LXR Agonist treated), or serum-free EMEM containing 2 μg/mL ACAT inhibitor, and 0.2% BSA (Control). Cells were washed and incubated with 20 μM peptides diluted in serum-free Fluorobrite DMEM for 4 hours at 37° C. Media was transferred to a new 96-well plate and fresh serum-free Fluorobrite DMEM was placed on the cells. Media and cellular fluorescence were read on a Promega GloMax at 475 nm excitation, 500-550 emission. Fluorescence values were background corrected from no treatment conditions and percent efflux was calculated by the following equation: % efflux=(Media Fluorescence values)/(Media+Cell Fluorescence values). Data are presented as mean+SD over two runs per peptide.
as §2, with “FIGS. 30A-30J show” for “FIGS. 27A-27B and FIG. 28 illustrate”, “cholesterol efflux titration curves for the indicated peptides.” for “cholesterol efflux.”, “μM” for “μM LXR agonist”, “or serum free” for “or serum-free”, “with 0-100” for “with 20”, “peptides serially” for “peptides”

[7] = tested on: iPS-RPE cells; test: cholesterol efflux in iPS-RPE cells; assay type: cell-based; conditions: 20 μM peptide, 4 hours
[8] = tested on: ApoE−/− mice; test: sub-RPE BODIPY+ lipid deposition in ApoE−/− mice; assay type: in vivo, mouse; conditions: two weeks
[9] = 1 μL IVT of 260 μM peptide, FIG. 40B
[10] = 1 μL IVT of 520 μM peptide, FIG. 40A

Structure (SMILES) | cholesterol import activity (fluorescence values above baseline) [1] | GAG dependence of cholesterol import [2] | cholesterol import activity (cellular fluorescence values above baseline) [3] [RFU] | GAG dependence of cholesterol import [4] | cholesterol import titration [1] | decrease of the oxidation of LDL [5] [%] | cholesterol efflux titration [6] | cholesterol efflux in the presence of LXR agonist [6] | cholesterol efflux following LXR agonism [7] | sub-RPE lipid deposits compared to vehicle [8, 9] | sub-RPE lipid deposits compared to vehicle [8, 10] | cholesterol import titration ([3]; HepG2, peptide:lipid complexes from 30 μM diluted 1:3)
CC(C)C[C@H](NC(=O)[C@H](CC(C)C)NC(=O)[C@H](CCCNC(=N)N)NC(=O)[C@H](CCCCN)NC(=O)[C@H](CCCNC(=N)N)NC(=O)[C@H](CC(C)C)NC(=O)[C@H](CCCCN)NC(=O)[C@H](CCCNC(=N)N)NC(=O)[C@H](CC(C)C)NC(=O)[C@@H](N)Cc1c[nH]cn1)C(=O)N[C@@H](CCCNC(=N)N)C(=O)N[C@@H](CC(=O)O)C(=O)N[C@@H](Cc1c[nH]c2ccccc12)C(=O)N[C@@H](Cc1ccccc1)C(=O)N[C@@H](CCCCN)C(=O)N[C@@H](C)C(=O)N[C@@H](Cc1ccccc1)C(=O)N[C@@H](Cc1ccc(O)cc1)C(=O)N[C@@H](CC(=O)O)C(=O)N[C@@H](CCCCN)C(=O)N[C@H](C(=O)N[C@@H](C)C(=O)N[C@@H](CCC(=O)O)C(=O)N[C@@H](CCCCN)C(=O)N[C@@H](Cc1ccccc1)C(=O)N[C@@H](CCCCN)C(=O)N[C@@H](CCC(=O)O)C(=O)N[C@@H](C)C(=O)N[C@@H](Cc1ccccc1)C(=O)O)C(C)C [T-021] (H-HLRKLRKRLLRDWFKAFYDKVAEKFKEAF-OH) | at least 10 RFU | rely on GAG binding for cholesterol import activity | ≥ 20 | rely on GAG binding for cholesterol import activity |  |  |  |  |  |  |  | 
CC(C)C[C@H](NC(=O)[C@H](Cc1ccccc1)NC(=O)[C@H](CCC(=O)O)NC(=O)[C@H](CCC(=O)O)NC(=O)[C@H](CC(C)C)NC(=O)[C@H](CCC(N)=O)NC(=O)[C@H](CCCNC(=N)N)NC(=O)CNC(=O)[C@@H](NC(=O)[C@H](CC(C)C)NC(=O)[C@H](CCCNC(=N)N)NC(=O)[C@H](CC(C)C)NC(=O)[C@H](CC(C)C)NC(=O)[C@H](CCCNC(=N)N)NC(=O)[C@H](CCCCN)NC(=O)[C@H](CCCNC(=N)N)NC(=O)[C@H](CC(C)C)NC(=O)[C@H](CCCCN)NC(=O)[C@H](CCCNC(=N)N)NC(=O)[C@H](CC(C)C)NC(=O)[C@@H](N)Cc1c[nH]cn1)C(C)C)C(=O)O [T-028] (H-HLRKLRKRLLRLVGRQLEEFL-OH) | at least 10 RFU | rely on GAG binding for cholesterol import activity | ≥ 20 | rely on GAG binding for cholesterol import activity |  |  |  |  |  |  |  | 
CC(C)C[C@H](NC(=O)[C@H](C)NC(=O)[C@H](CCCNC(=N)N)NC(=O)[C@H](Cc1ccccc1)NC(=O)[C@H](CCCNC(=N)N)NC(=O)[C@H](CCC(=O)O)NC(=O)[C@H](Cc1c[nH]c2ccccc12)NC(=O)[C@H](C)NC(=O)[C@@H](N)CC(=O)O)C(=O)N[C@@H](Cc1ccccc1)C(=O)N[C@@H](CCCCN)C(=O)N[C@@H](CCC(=O)O)C(=O)N[C@@H](CC(C)C)C(=O)N[C@@H](C)C(=O)N[C@@H](CC(=O)O)C(=O)N[C@@H](Cc1ccc(O)cc1)C(=O)N[C@@H](Cc1ccccc1)C(=O)N[C@@H](CCCNC(=N)N)C(=O)O [T-087] (H-DAWERFRALFKELADYFR-OH; N-terminus and C-terminus assumed) |  |  |  |  | not able to increase cholesterol import | 92 | concentration-dependent increase in cholesterol efflux | greater cholesterol efflux | able to increase cholesterol efflux | statistically significant decrease of sub-RPE lipid deposits | statistically significant decrease of sub-RPE lipid deposits | 
CC[C@H](C)[C@H](NC(=O)[C@H](Cc1ccccc1)NC(=O)[C@H](CCCNC(=N)N)NC(=O)[C@H](CCCCN)NC(=O)[C@H](CC(C)C)NC(=O)[C@H](CCC(=O)O)NC(=O)[C@H](CCCCN)NC(=O)[C@H](CC(C)C)NC(=O)[C@H](C)NC(=O)[C@H](CO)NC(=O)[C@H](CCC(=O)O)NC(=O)[C@H](CC(C)C)NC(=O)[C@H](C)NC(=O)[C@H](CC(=O)O)NC(=O)[C@H](C)NC(=O)CNC(=O)[C@H](CO)NC(=O)[C@@H](N)CCCNC(=N)N)C(=O)N[C@@H](CCCNC(=N)N)C(=O)N[C@@H](CCC(=O)O)C(=O)N[C@@H](Cc1c[nH]c2ccccc12)C(=O)N[C@H](C(=O)O)[C@@H](C)O [T-101] (H-RSGADALESALKELKRFIREWT-OH; N-terminus and C-terminus assumed) | at least 10 RFU |  |  |  | concentration-dependent increases in cholesterol import | 91.6 | concentration-dependent increase in cholesterol efflux | greater cholesterol efflux | able to increase cholesterol efflux | statistically significant decrease of sub-RPE lipid deposits | statistically significant decrease of sub-RPE lipid deposits | concentration-dependent cholesterol import activity

— patent publication US20260115250A1, “METHODS OF TREATING AGE-RELATED MACULAR DEGENERATION” (Character Biosciences, Inc., priority 2022, published 2026)
